Results of single-concentration screens

Amino acid sequences for entries named in this document (tags omitted). Residues count along the entry.
UniProt P9WFT3, whole entry: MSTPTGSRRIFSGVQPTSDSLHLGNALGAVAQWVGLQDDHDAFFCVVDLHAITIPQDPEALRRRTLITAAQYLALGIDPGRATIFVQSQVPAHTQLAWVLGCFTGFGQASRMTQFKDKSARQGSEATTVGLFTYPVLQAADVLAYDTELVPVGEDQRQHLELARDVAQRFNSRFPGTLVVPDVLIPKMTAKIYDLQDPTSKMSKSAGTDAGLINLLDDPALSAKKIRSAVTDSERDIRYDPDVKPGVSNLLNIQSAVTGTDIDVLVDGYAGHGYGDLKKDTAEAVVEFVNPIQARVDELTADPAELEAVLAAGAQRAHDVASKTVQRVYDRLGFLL
UniProt I6X8D2, whole entry: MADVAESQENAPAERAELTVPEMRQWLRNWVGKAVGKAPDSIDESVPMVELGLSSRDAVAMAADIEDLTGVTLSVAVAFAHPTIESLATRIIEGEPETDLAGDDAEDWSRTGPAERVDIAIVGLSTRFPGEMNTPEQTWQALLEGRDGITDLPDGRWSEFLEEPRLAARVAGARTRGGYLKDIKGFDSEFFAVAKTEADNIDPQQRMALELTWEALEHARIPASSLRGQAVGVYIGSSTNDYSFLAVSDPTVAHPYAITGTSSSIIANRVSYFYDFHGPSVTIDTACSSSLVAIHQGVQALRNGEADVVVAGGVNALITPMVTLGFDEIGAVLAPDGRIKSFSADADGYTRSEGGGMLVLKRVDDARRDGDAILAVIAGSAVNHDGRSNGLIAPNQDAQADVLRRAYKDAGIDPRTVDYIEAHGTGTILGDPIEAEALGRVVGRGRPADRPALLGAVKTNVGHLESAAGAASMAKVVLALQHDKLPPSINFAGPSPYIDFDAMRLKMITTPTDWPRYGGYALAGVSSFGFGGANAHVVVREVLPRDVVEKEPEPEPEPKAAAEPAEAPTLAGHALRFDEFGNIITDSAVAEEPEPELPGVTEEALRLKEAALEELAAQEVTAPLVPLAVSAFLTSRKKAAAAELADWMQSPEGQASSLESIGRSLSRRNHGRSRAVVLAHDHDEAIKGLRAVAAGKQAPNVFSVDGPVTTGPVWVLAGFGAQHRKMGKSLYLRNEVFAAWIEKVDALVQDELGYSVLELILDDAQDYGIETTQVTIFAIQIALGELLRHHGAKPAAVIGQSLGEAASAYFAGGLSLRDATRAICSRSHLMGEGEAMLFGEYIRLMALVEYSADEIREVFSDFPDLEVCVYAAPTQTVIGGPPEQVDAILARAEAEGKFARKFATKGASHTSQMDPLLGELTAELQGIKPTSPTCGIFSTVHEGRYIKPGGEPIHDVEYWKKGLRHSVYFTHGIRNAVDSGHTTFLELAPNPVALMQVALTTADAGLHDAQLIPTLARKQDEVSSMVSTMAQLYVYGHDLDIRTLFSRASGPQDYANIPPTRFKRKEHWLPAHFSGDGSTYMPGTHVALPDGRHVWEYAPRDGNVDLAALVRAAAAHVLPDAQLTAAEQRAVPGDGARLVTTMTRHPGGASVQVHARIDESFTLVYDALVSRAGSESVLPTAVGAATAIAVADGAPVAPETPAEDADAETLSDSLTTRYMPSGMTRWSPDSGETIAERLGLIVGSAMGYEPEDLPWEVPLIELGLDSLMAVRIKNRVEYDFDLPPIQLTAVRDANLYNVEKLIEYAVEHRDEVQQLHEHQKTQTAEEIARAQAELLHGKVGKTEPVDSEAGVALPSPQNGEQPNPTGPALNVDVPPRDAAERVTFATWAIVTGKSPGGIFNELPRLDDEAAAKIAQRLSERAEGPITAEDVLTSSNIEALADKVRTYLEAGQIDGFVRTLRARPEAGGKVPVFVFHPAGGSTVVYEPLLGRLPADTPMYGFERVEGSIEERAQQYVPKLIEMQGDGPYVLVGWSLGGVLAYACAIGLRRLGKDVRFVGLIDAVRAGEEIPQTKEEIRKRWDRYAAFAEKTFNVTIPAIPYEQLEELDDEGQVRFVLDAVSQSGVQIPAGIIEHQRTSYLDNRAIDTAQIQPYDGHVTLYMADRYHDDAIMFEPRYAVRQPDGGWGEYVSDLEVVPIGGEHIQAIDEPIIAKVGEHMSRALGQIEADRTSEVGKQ
UniProt Q4DA54, 1-478: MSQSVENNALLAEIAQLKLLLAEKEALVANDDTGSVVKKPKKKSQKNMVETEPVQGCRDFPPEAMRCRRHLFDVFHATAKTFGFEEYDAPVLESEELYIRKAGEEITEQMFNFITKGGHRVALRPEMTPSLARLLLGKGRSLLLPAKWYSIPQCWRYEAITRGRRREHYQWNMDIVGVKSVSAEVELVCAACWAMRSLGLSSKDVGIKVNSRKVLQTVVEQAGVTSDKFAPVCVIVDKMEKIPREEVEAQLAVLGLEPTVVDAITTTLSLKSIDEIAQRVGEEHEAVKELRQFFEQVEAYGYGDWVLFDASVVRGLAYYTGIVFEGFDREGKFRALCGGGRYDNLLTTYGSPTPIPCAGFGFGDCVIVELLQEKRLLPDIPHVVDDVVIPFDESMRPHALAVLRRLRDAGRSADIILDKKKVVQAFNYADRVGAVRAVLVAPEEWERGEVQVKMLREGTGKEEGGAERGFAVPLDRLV

Source: ChEMBL document CHEMBL3988442, “University of Dundee, Small-Polar-MMV Screening Library” (2021).

Values are the deposited “Percent Effect”, in %. The record does not define 0% and 100%; most values in the screen are far below 50% and negative numbers occur (in some assays of this library far below -100). This is an unselected part of the compounds tested. A dash means the value is not listed here; it may have been measured.

MtTrpRS: 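Enzyme assay of tryptophanyl-tRNA synthetase; the read-out is not stated. Target: Tryptophan-tRNA ligase, Mycobacterium tuberculosis (UniProt P9WFT3). Compounds at 10 µM. Direction is not recorded; retested compounds ran higher, which suggests that high means inhibition. Of about 65,000 compounds tested this way, about 64 (0.098%) reached 50% or more in at least one test.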
Leishmania in macrophages: 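Cell assay of Leishmania donovani living inside macrophages; the read-out is not stated. Tested at 30 µM. The record gives no direction; compounds that gave an IC50 in retests scored well above the rest, so higher reads as stronger inhibition. Size under these conditions: about 69,000 compounds, about 1,000 of them at 50% or above in at least one test.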
Pks13 thioesterase: 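Enzyme assay of the thioesterase domain of polyketide synthase 13; the read-out is not stated. Target: Polyketide synthase Pks13, Mycobacterium tuberculosis (UniProt I6X8D2). Tested at 30 µM. Higher reads as stronger inhibition (inferred from which compounds were picked for retests). Of about 67,000 compounds tested this way, about 300 (0.46%) reached 50% or more in at least one test.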
TcHisRS: 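Enzyme assay of histidyl-tRNA synthetase; the read-out is not stated. Target: Histidine-tRNA ligase, Trypanosoma cruzi CL Brener (UniProt Q4DA54). Concentration: 30 µM. Higher reads as stronger inhibition (inferred: compounds with an IC50 in retests scored well above the rest). About 69,000 compounds were tested under these conditions; 0.045% (about 31) showed 50% or more at least once.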

structure	MtTrpRS	Leishmania in macrophages	Pks13 thioesterase	TcHisRS
Cc1cccc(CN2CCc3onc(CO)c3C2)n1.O=C(O)C(F)(F)F	-	15.54	-	-
CCOc1ccc(CN2C(=O)CC(CC)(CC)C2=O)nc1	-1.87	-4.514	-	1.571
Cc1ccc(S(=O)(=O)Nc2ccc(N3CCOCC3)cn2)cc1	-2.102	24.84	-17.5	4.433
CC(C)NC(=O)CCNC(=O)Nc1cnn(-c2ccccc2F)c1	-3.349	14.54	13.07	5.419
CCN1Cc2cc(OC)ccc2N(CC(C)(C)O)CCC1=O	-	-1.549	-5.375	9.249
CC(C)N(C(=O)c1ccnc(OCC(F)(F)F)c1)c1cccnc1	1.467	8.031	-22.09	3.922
COCc1nn(C(C)C)c2c1CCN(Cc1ccccn1)C2.O=C(O)C(F)(F)F.O=C(O)C(F)(F)F	-	23.84	-	-
CNc1ncccc1CN1CCC1c1cc(N)nc(C)n1 (centres undefined)	4.158	21.15	-18.76	5.747
CC(C)NCc1cc2n(n1)CCN(C1CCCCC1)C2	3.913	4.162	7.528	0
CC(C)C(NC(=O)C1CC1)c1cc(O)nc(-c2cccnc2)n1 (centres undefined)	2.415	14.57	-14	3.955
O=C(O)C(F)(F)F.O=C(O)C(F)(F)F.[H][C@@]12COC[C@]1(CN(C)C)CN(Cc1ccc3c(c1)OCO3)C2	-	41.18	-	-
CC(C)c1ccc(-n2nnc(C(=O)O)c2-c2ccccn2)cc1	3.711	25.24	-6.602	-0.5848
Cc1cc(C)n(C2CCCN(C(=O)c3ccc(F)cc3F)C2)n1 (centres undefined)	-0.1876	16.64	-6.02	5.882
CCCc1nc(N(C)CCN2CCCCCC2)c2cnn(C)c2n1	-1.401	9.303	-31.83	4.372
CCOc1cccc2c1OCC(C(=O)NS(=O)(=O)c1cccs1)=C2	1.089	6.845	-6.764	2.579
Fc1cccc(CN2CCC[C@@H](Cn3nnc(-c4ccccn4)n3)C2)c1	2.415	12.86	3.417	1.695
CNC(=O)C(C)(C)N(C)C(=O)c1cc(COc2ccccc2OC)[nH]n1	3.205	27.81	-9.263	8.642
CC(C)c1ccc(OCCC(=O)N2CCCN(C(N)=O)CC2)cc1	-3.578	10.78	-12.34	6.509
Fc1cnc(NCC2Cn3nnc(-c4ccccc4)c3CO2)nc1 (centres undefined)	1.592	10	-42.55	4.082
Cc1nc(C(C)C)sc1C(=O)N(C)CCCc1cnn(C)c1	1.487	18.63	-10.92	2.703
CN(C)S(=O)(=O)N1CCCC(c2cccc(Cc3ccccc3)n2)C1 (centres undefined)	0.9167	18.59	-131	5.376
O=C(O)C(F)(F)F.[H][C@@]12C[C@H](C(=O)NCc3ccco3)CN(C(=O)c3ccncc3)[C@]1([H])CCO2	-	-2.056	-	-
N#Cc1cnc(NC2CCN(C(=O)C3CC3)CC2)c(Cl)c1	0.8922	10.01	-23.22	3.784
Cc1ncc2c(n1)CN(c1ncnc3[nH]ccc13)CC2	-3.168	6.105	2.641	12.87
CC(C)CNc1c(NCc2ccco2)c(=O)c1=O	2.846	8.904	-11.14	5
CC(=O)c1cc2ncc(C(=O)NC3CCCC3)cc2[nH]1	-	33.19	17.98	9.091
Cc1nc(CN2CCCC(c3cnccn3)C2)cs1 (centres undefined)	-2.995	21.34	-2.524	4.981
CCn1cc(CN2CCN(CC(O)c3ccc(C)cc3C)CC2)c(C)n1 (centres undefined)	-2.98	42.25	0.4368	9.125
Cc1nc(C)c(C)c(NCCSCc2[nH]cnc2C)n1	-5.936	30.87	-29.16	3.665
COc1ccccc1-c1csc(NC(=O)N2CCN(C)CC2C)n1 (centres undefined)	-0.3291	9.878	-4.238	14.36
COc1cc(COCC2CCN(Cc3ccccn3)CC2)cc(OC)c1	-2.234	-	-25.21	2.646
CCN(CC1CCOC1)C(=O)c1ccn(-c2ccc(OC)cc2)n1 (centres undefined)	3.401	13.16	-10.24	2.051
Cc1cc(C)c(CNC(=O)c2ccc3c(c2)CCC3)c(=O)[nH]1	-7.025	-0.3626	-1.499	8.772
CC(O)CN1CC2(CCC1=O)CCN(C(=O)c1cnn(C)c1)CC2 (centres undefined)	-2.113	40.05	-25.79	3.665